For 82 molecules, activity change, negative = more quenching (active) results are on record in PubChem BioAssay AID743402 (Broad Institute, 2014).

About 140 (12%) of roughly 1,200 compounds were called active.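 Rule for the calls: active = fitted curve falls past -35% activity change at a dose under twice the top valid dose, in every replicate test; inconclusive = replicate tests disagree on the call; inactive = the rest, including activity in the opposite direction.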 Most of the strongest results are missing from this list.

The assay is described as follows: CFTR-F508del correctors, dose response, FRT cells, YFP quenching, cherry-pick (AID 743402).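 Note: compounds act as correctors raising surface CFTR-F508del before acute activation.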 The following applies: FRT CFTR-F508del YFP iodide quenching, 24 h, channel opened with forskolin and a potentiator; at 26 µM (top of the series) unless noted.
Take `O=C(NC(Cc1ccccc1)C(=O)N1CCN(S(=O)(=O)c2ccccc2F)CC1)c1ccccc1` (configuration not stated): the activity change, negative = more quenching (active) is inactive: 16%. Next, `COc1ccc(C#Cc2ccc([C@H]3[C@H]4CN(C(=O)c5ccncc5)CCCCN4[C@H]3CO)cc2)cc1`: inactive: 12.9%. Next, `COc1cc(/C=C/C(=O)O)cc(S(=O)(=O)Nc2ccc3cn[nH]c3c2)c1OC`: inactive: 3.33%; `Cn1nccc1C(=O)N/N=C/c1c(O)ccc2ccccc12`: inactive: 6.67%. Next, `CC1=C(C(=O)NC2CCCCC2C)C2(CCC(C)CC2)OC1=O` (configuration not stated): inactive: 10.7%. With `COc1ccc(Cc2nnc(NC(=O)c3ccc(F)cc3)s2)cc1OC`, the activity change, negative = more quenching (active) was inactive: 13.3%. As for `Cn1cccc1C(=O)OCC(=O)NCc1ccc2c(c1)OCO2`, the figure is inactive: -0.208%; as for `Cc1cccc(N2CCN(Cc3cn(C)nc3-c3ccccc3F)CC2)n1`, inactive: 10%; as for `CCS(=O)(=O)N1CC(=O)N2[C@H](C1)[C@@H](c1ccc(C#CCC(C)C)cc1)[C@@H]2CO`, inactive: 5.3%. For `COc1ccc(S(=O)(=O)N(C(=O)C(C)C)c2ccc3oc(=O)sc3c2)cc1`, the activity change, negative = more quenching (active) is inactive: 12.9%.

For the molecule `CN1c2ccc(-c3ccc(F)cc3)cc2[C@H]2[C@H](CCN2S(=O)(=O)c2cccc(F)c2)[C@@H]1CO`, the activity change, negative = more quenching (active) was inactive: -28.6% [at 9 µM]. Next, `C[C@H](CO)N1C[C@H](C)[C@H](CN(C)C(=O)c2ccc3c(c2)OCO3)Oc2cc(C#Cc3ccccc3F)ccc2S1(=O)=O`: inactive: 5.3%.

Take `Cc1cc(C(=O)N/N=C/c2ccc([N+](=O)[O-])cc2)c2ccccc2n1`: the activity change, negative = more quenching (active) is inactive: 7.96%. Next, `C=CCN=c1scc(C)n1/N=C/c1ccc(O)c(O)c1`: inactive: 0%.

Take `CCOC(=O)C1CCCN(c2nc3ccccc3nc2NS(=O)(=O)c2ccc(C)cc2)C1` (configuration not stated): the activity change, negative = more quenching (active) was inactive: 3.33%. For `O=C(COc1ccc(F)cc1Cl)Nc1cccc(S(=O)(=O)N2CCCCCC2)c1`, the activity change, negative = more quenching (active) is inactive: 6.25%. As for `CCOC(=O)N1CCN(S(=O)(=O)c2ccc3c(c2)C(C)C(=O)N3)CC1` (configuration not stated), the figure is inactive: 3.12%; as for `Cc1cc2c(s1)Nc1ccccc1N=C2N1CCN(C)CC1`, inactive: 3.12%; as for `COCCOC(=O)c1[nH]c2c(c1C)C(=O)CC(c1cccs1)C2` (configuration not stated), inactive: -5.56%.

As for `COc1ccc(NC(=O)N[C@@H]2CC[C@@H](CCn3cc(-c4ccc(F)cc4)nn3)O[C@@H]2CO)cc1`, the activity change, negative = more quenching (active) is inactive: 15.8% [at 23.5 µM]. As for `Cc1cccc(NC(=O)CN2CCN(C(=O)CN3C(=O)NC4(CC(C)CC(C)(C)C4)C3=O)CC2)c1C` (configuration not stated), the figure is inactive: 13.3%; as for `CC(OC(=O)CCCC(=O)Nc1ccc(F)cc1)C(=O)c1ccccc1` (configuration not stated), inactive: 0%; as for `COc1ccc(C2CC(c3cccc(Br)c3)=NN2c2ccc(S(N)(=O)=O)cc2)cc1` (configuration not stated), inactive: 8.28%.

With `CCc1cccc(NC(=O)COC(=O)c2cc([N+](=O)[O-])ccc2N2CCOCC2)c1`, the activity change, negative = more quenching (active) was inactive: 16.4%. Next, `COc1ccc(C(=O)c2ccc(N(C)C)cc2)c(OC)c1`: inactive: 11.1%; `CN1c2ccc(-c3ccc(C#N)cc3)cc2[C@H]2[C@H](CCN2S(=O)(=O)c2cccc(F)c2)[C@H]1CO`: inactive: 0%; `c1ccc(CCNc2nc(-c3ccccn3)nc3ccccc23)cc1`: inactive: 6.67%. On to `CCOC(=O)c1c(NC(=O)CN2C(=O)NC3(CCC(C)CC3)C2=O)sc(C)c1CC` (configuration not stated), for which the activity change, negative = more quenching (active) was inactive: 12.5%. Next, `O=C(Cc1ccsc1)OCC(=O)c1ccccc1`: inactive: 3.33%; `CN(C)c1ccc2c(c1)[C@@H]1C[C@@H](CC(=O)NCc3ccc(Oc4ccccc4)cc3)O[C@H](CO)[C@@H]1O2`: inactive: 10.2%; `C[C@@H]1CN([C@@H](C)CO)C(=O)c2cccc(NC(=O)Nc3ccc4c(c3)OCO4)c2O[C@H]1CN(C)S(=O)(=O)c1ccccc1`: inactive: 13.4%. In the case of `O=C(Nc1ccccc1)c1nc[nH]c1C(=O)Nc1ccccc1F`, the activity change, negative = more quenching (active) is inactive: -4.74%. As for `Cc1cccc2c(N=Nc3ccc(S(=O)(=O)Nc4ccc(Cl)cc4)cc3[N+](=O)[O-])c(O)[nH]c12`, the figure is inactive: 6.67%. Regarding `CNC(=O)C1CC(=O)N(c2ccc(OCC(=O)Nc3ccccc3)cc2)C1` (configuration not stated), the activity change, negative = more quenching (active) is inactive: 6.46%. As for `Clc1ccc(N(CC2CO2)CC2CO2)cc1` (configuration not stated), the figure is inactive: -16.7%; as for `Fc1ccccc1/C=N/NC(=S)Nc1ccc(Cl)cc1Cl`, inactive: 16.7%. In the case of `COc1ccc(S(=O)(=O)N2CC[C@@H]3[C@@H](CO)Nc4ccc(C5=CCCCC5)cc4[C@@H]32)cc1`, the activity change, negative = more quenching (active) is inactive: 6.46%.

Consider `Cc1ccc(-c2ccc([C@H]3[C@@H](CO)N4CCCCN(C(=O)Nc5cccc(F)c5)C[C@H]34)cc2)cc1`, for which the activity change, negative = more quenching (active) was inactive: -3.12%. Next, `O=C(CSc1nc2nn(-c3ccccc3)c(=O)c-2c2n1CCCCC2)Nc1ccc(OC(F)F)cc1`: inactive: 16%. Next, `CCN(CC)CCCNc1nc2ccccc2c2[nH]c3ccc(OC)cc3c12`: inactive: -10%; `O=C(CN1CCN(S(=O)(=O)c2ccccc2)CC1)Nc1ccccc1Cl`: inactive: 12.2%; `COc1ccc(Nc2nc(-c3sc(C)nc3C)cs2)c(OC)c1`: inactive: -10%. Next, `O=c1c2ccccc2oc2cc(-c3ccc4[nH]ccc4c3)ccc12`: inactive: -16.7%; `C[C@H](CO)N1C[C@H](C)[C@H](CN(C)C(=O)NC2CCCCC2)Oc2cc(C#Cc3cccc(F)c3)ccc2S1(=O)=O`: inactive: 10.3%; `CNC(=O)CC1C(=O)N(c2ccc(F)cc2)C(=S)N1NC(=O)c1ccc(Cl)cc1` (configuration not stated): inactive: 7.96%. `COc1cc(/C=N/NC(=O)c2cc(-c3c(C)nn(-c4ccccc4)c3C)n[nH]2)ccc1O`: the activity change, negative = more quenching (active) was inactive: 20%. Regarding `O=C(NC(=S)Nc1ccc(-c2ccccc2)cc1)c1ccccc1`, the activity change, negative = more quenching (active) was inactive: 0%. As for `Cc1ccc(NC(=O)Cc2nc(-c3c[nH]c(C(=O)N4CCCC4)c3)cs2)c(C)c1`, the figure is inactive: 6.67%; as for `COc1ccc(CC(=O)Nc2nccs2)cc1S(=O)(=O)N1CCOCC1`, inactive: 9.58%; as for `Cc1ccc(S(=O)(=O)N2CCCCC2CCNC(=O)C(=O)NCc2ccccc2)cc1` (configuration not stated), inactive: 27%. As for `Cc1ccc(S(=O)(=O)N2C[C@H]3[C@H]4C(=O)N(C)C(=O)[C@H]4CC(=O)[C@H]3[C@@H]2c2ccccc2F)cc1`, the figure is inactive: 6.67%; as for `NS(=O)(=O)c1cc(Cl)c(Cl)c(S(N)(=O)=O)c1`, inactive: 0%; as for `Cc1ccc(S(=O)(=O)N(C)C[C@@H]2OCCCC[C@@H](C)Oc3ccc(NS(=O)(=O)c4ccc(Cl)cc4)cc3C(=O)N([C@@H](C)CO)C[C@@H]2C)cc1`, inactive: 10.7%. For the molecule `CC(=O)OC1CCC2(C)C(=CCC3C2CCC2(C)C3CC3ON=C(C)C32)C1` (configuration not stated), the activity change, negative = more quenching (active) was inactive: 13.3%. Next, `CCOc1ccc(NC(=O)CN(c2ccc([N+](=O)[O-])cc2)S(=O)(=O)c2ccccc2)cc1`: inactive: 20%. For `N#C/C(=C(/O)c1ccc(Br)s1)c1nc2ccccc2[nH]1`, the activity change, negative = more quenching (active) was inactive: 12.5%. As for `COc1ccc(OC)c2[nH]c(C(=O)N/N=C/c3ccccc3O)cc12`, the figure is inactive: 3.12%.

Consider `Cc1ccccc1OCC(=O)OCC(=O)NCCc1ccccc1`, for which the activity change, negative = more quenching (active) was inactive: 0%.

For `CCOC(=O)c1c(C)[nH]c(C(=O)N/N=C/c2ccc(OC)c(OC)c2)c1C`, the activity change, negative = more quenching (active) was inactive: 20%.

Regarding `Cc1ccc(-c2ccc3c(c2)O[C@H](CN(C)C(=O)Nc2ccc(C(F)(F)F)cc2)[C@@H](C)CN([C@@H](C)CO)S3(=O)=O)cc1`, the activity change, negative = more quenching (active) was inactive: 3.12%. Next, `CN(Cc1ccccc1)S(=O)(=O)c1ccc(NC(=S)NC(=O)C2CCCC2)cc1`: inactive: -3.33%. Next, `CC(=O)c1c(C)[nH]c(C(=O)OCc2nnc(-c3ccc([N+](=O)[O-])cc3)o2)c1C`: inactive: 10%; `CCC(=O)c1ccc(OCC(=O)OCC(=O)N2CCc3ccccc3C2)cc1`: inactive: 14.3%. Consider `CN(C[C@@H]1N[C@H](CO)[C@H]1c1ccccc1)C(=O)c1ccccn1`, for which the activity change, negative = more quenching (active) was inactive: 10.3%. As for `O=C(Nc1nc(-c2ccccn2)cs1)c1ccc(F)c(S(=O)(=O)N2CCOCC2)c1`, the figure is inactive: 8.28%; as for `CCn1c(SC(C)C(=O)NCC2CCCO2)nc2ccccc21` (configuration not stated), inactive: 3.33%; as for `COc1ccc([C@H]2CC(=O)C=C(c3c(OC)cccc3OC)C2)cc1`, inactive: 0%.

As for `CC1CCN(C(=O)c2ccc(S(=O)(=O)N3CCCC3)cc2)CC1`, the activity change, negative = more quenching (active) was inactive: 9.79%.

In the case of `CCOc1cc(/C=N/NC(=O)N/N=C/c2ccc(O)c(OCC)c2)ccc1O`, the activity change, negative = more quenching (active) was inactive: -6.46%. Next, `Nc1ccc(S(=O)(=O)Nc2cnc3ccccc3n2)cc1`: inactive: 0%; `Cn1nnnc1N=N/C(=N/Nc1ccccc1)c1ccccc1`: inactive: 3.33%. Next, `Cc1ccc(OCC(=O)Nc2ccc(CN3CCCCC3)cc2)c(C)c1`: inactive: 18.4%; `CCCCNc1cc(C(=O)O)cc(S(N)(=O)=O)c1Oc1ccccc1`: inactive: -32.1%; `CC(C)(C)C(=O)OCc1nc(-c2ccc(O)c(O)c2)cs1`: inactive: -6.67%. Next, `COc1cccc(Sc2ccccc2/C=N/NC(N)=O)c1`: inactive: 6.67%.

For `CC(=O)Nc1cccc(-c2ccnc3c2CC(C)(C(=O)Nc2ccc4c(c2)OCO4)O3)c1` (configuration not stated), the activity change, negative = more quenching (active) was inactive: 16.7%.

In the case of `CN1C(=O)c2cc(NC(=O)c3ccc(Cl)cc3)ccc2OC[C@@H]2O[C@H](CC(=O)NCc3cccc(F)c3)CC[C@H]21`, the activity change, negative = more quenching (active) was inactive: 27.6%. Next, `CC(C)C[C@@H](COCc1ccc(C(F)(F)F)cc1)N1CCN(C(=O)c2ccc(C(F)(F)F)cc2)CCC1=O`: inactive: 12.7%; `Cc1noc(C)c1C(=O)NCC1COc2ccccc2O1` (configuration not stated): inactive: 13.3%; `CCN(CC)C(=S)SSC(=S)N(CC)CC`: inactive: 6.25%.

`COc1ccc(C(=O)NCC(c2ccco2)N2CCc3ccccc32)cc1` (configuration not stated): the activity change, negative = more quenching (active) was inactive: 3.12%. As for `Cc1cc(C(=O)N2CC=C(c3ccccc3)CC2)c2ccccc2n1`, the figure is inactive: -18.7%.
